Drawing on PMC6219715, this text covers binding for 1 molecule.

The target of experiment [1] is N-terminal HA-tagged Xrp1^Short (Drosophila melanogaster). The experiment is described as follows: co-IP; S2 cells expressing actin5C-GAL4 alone or with tagged Xrp1^Short or Xrp1^Long; lysate on anti-Flag (M2) or anti-Caz (3F4) Protein G magnetic beads overnight at 4°C; immunoblot. (In general: In western blotting, separated proteins are transferred to a membrane and probed.)

The target of experiment [2] is N-terminal HA-tagged Xrp1^Long (Drosophila melanogaster). The description is as above.

Results are given in words; binding and its absence hold for the method and conditions named. Binding seen in cells or lysates may run through a third protein.

B1: Cabeza (Caz) (protein, UniProt Q27294 1-399)
chain: MERGGYGGGSGQGYNNFAVPPPNYQQMPNKTGNYNEPPPNYGKQGGGYDSGSGHRGSGGSGNGGGGGGSWNDRGGNSYGNGGASKDSYNKGHGGYSGGGGGGGGGGGGGSGGNDMITQEDTIFVSGMDPSTTEQDIETHFGAIGIIKKDKRTMKPKIWLYKNKETGASKGEATVTYDDTNAAQSAIEWFDGRDFNGNAIKVSLAQRQNNWNKGGGGGGGGGGRGGFGGRRGGGGGGGGGGGGGGRFDRGGGGGGGRYDRGGGGGGGGGGGNVQPRDGDWKCNSCNNTNFAWRNECNRCKTPKGDDEGSSGGGGGGGYGGGGGGGGYDRGNDRGSGGGGYHNRDRGGNSQGGGGGGGGGGGYSRFNDNNGGGRGGRGGGGGNRRDGGPMRNDGGMRSRPY
For B1, the binding entry in experiment [1] and in experiment [2] was “no binding” each time.
